# The whole screen tested about 400,000 compounds, of which about 5,500 (1.4%) were called active. This list was built around the results that the source calls inconclusive (neither active nor inactive); the mix of calls is not that of the screen. Calls follow the shape of the dose curve; as a rule, active = well fitted cell-killing curve with a large enough effect; inconclusive = small, poorly fitted or top-dose-only effect, or effect the other way; inactive = flat fitted curve, though single readings scatter. Where the call is inconclusive, the potency comes from a doubtful curve fit.
# Assay: qHTS assay for MDR1-selective chemotherapeutics: Primary screen using the parental adenocarcinoma cell KB-3-1; also: nearly all actives have a fitted effect of over 60% in size
# Conditions: KB-3-1 viability, CellTiter-Glo ATP luminescence, 72 h; activity change, negative = cytotoxic: at 46.1 µM (top of the series)
# Summary of the method: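 Multi-concentration cytotoxicity screen in KB-3-1 cells grown in DMEM lacking phenol red with 10% FBS. After 72 h at 37 °C with compound, ATP-dependent luminescence was recorded.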
# % is scaled to controls: 0 for no effect and ±100 for the full control effect; potency is read from the fitted curve at half-maximal effect.
Compound,Potency,"activity change, negative = cytotoxic"
CCc1nc2c(OCc3cc(Cl)cc(Cl)c3)cccn2c1N(C=O)Cc1ccccc1,"inconclusive: 29.1 µM [cytotoxic, single point]",–
COc1ccc(C)cc1NC(=O)C1COc2ccccc2C1 (stereo not given),inactive,–
CC[N+]1(C)CCC(O)(c2ccc(OC)cc2)C(C(=O)c2ccc(OC)cc2)C1 (stereo not given),"inconclusive: 23.1 µM [cytotoxic, single point]",–
COc1ccc(OC)c(N/C(C)=C/C(=O)c2ccc(Br)cc2)c1,"inconclusive: 29.1 µM [cytotoxic, single point]",–
Cn1c(/C(C#N)=C(\O)COc2ccc3ccccc3c2)nc2ccccc21,"inconclusive: 29.1 µM [cytotoxic, single point]",–
CCC(C)(C)NC(=O)C1CCN(S(=O)(=O)c2c(C)noc2/C=C/c2ccc(C)cc2)CC1,inactive,–
CCOC(=O)N1CCC(n2c(SCC(=O)NCCC3=CCCCC3)nc3ccccc3c2=O)CC1,"inconclusive: 18.4 µM [cytotoxic, single point]",–
Cc1ccc(C(=O)Nc2ccc(Cl)cc2C(F)(F)F)c(Cl)c1,inactive,–
COC(=O)c1c(-c2ccc(S(C)(=O)=O)cc2)sc2ccc(OC)cc12,"inconclusive: 29.1 µM [cytotoxic, single point]",–
CCc1c(C)nc2cc(C)[nH]n2c1=O,–,inconclusive: 7.22%
CCc1ccc(C(C#N)=CC=Cc2ccccc2)cc1,"inconclusive: 20.6 µM [cytotoxic, partial curve, poor fit]",–
Cc1ccccc1NC(=S)c1nc2ccccc2[nH]1,"inconclusive: 29.1 µM [cytotoxic, single point]",–
CCCCCc1ccc2cc(C#N)ccc2n1,inactive,–
C/C(=N\Nc1ccccn1)c1ccc(OC(F)F)cc1,"inconclusive: 20.6 µM [cytotoxic, single point]",–
O=C(c1ccco1)N1N=C(c2ccc(Cl)cc2)CC1c1ccco1 (stereo not given),"inconclusive: 18.4 µM [cytotoxic, single point]",–
Cc1ccc2c(c1)C(=O)C(=O)N2CC1COc2ccccc2O1 (stereo not given),"inconclusive: 16.4 µM [cytotoxic, partial curve, poor fit]",–
Cc1cccc(C)c1-n1nnnc1C1c2ccccc2C(=O)N1CCOc1ccccc1 (stereo not given),"inconclusive: 16.4 µM [cytotoxic, single point]",–
C#CC(C)(C)NS(=O)(=O)c1cc(-c2nnc(Nc3ccc(C)cc3)c3ccccc23)ccc1C,"inconclusive: 29.1 µM [cytotoxic, single point]",–
Cc1nn(S(=O)(=O)c2ccc(Cl)cc2)c(C)c1Sc1ccc([N+](=O)[O-])cc1,inactive,–
CC(C)CN=C(NS(=O)(=O)c1ccccc1)C(Cl)(Cl)Cl,active: 8.2 µM,–
CCOC(=O)c1sc(NC(=O)CSc2n[nH]c(-c3ccncc3)n2)c(C#N)c1C,"inconclusive: 29.1 µM [cytotoxic, single point]",–
C=CCOc1ccc(/C=N/Nc2ccccn2)cc1OC,"inconclusive: 13 µM [rising, partial curve]",–
CN1CCC[C@@H]1CCNC(=O)c1c(-c2ccc3c(c2)OCO3)noc1-c1ccsc1,"inconclusive: 14.6 µM [cytotoxic, partial curve]",–

Compound,Potency,"activity change, negative = cytotoxic"
Cc1ccc(NC(=O)CN(c2ccccc2)S(=O)(=O)N(C)C)cc1Cl,"inconclusive: 18.4 µM [cytotoxic, single point]",–
CCCC(c1nnnn1C(C)(C)CC)N(CCCO)Cc1cc2cc(C)cc(C)c2[nH]c1=O (stereo not given),"inconclusive: 20.6 µM [cytotoxic, partial curve]",–
Nc1cc(-c2ccc(Cl)cc2)nn1S(=O)(=O)c1cccc2nsnc12,"inconclusive: 29.1 µM [cytotoxic, single point]",–
C=CC[n+]1c(-c2ccc(C)cc2)csc1Nc1c(C)n(C)n(-c2ccccc2)c1=O,"inconclusive: 29.1 µM [cytotoxic, single point]",–
COc1ccc(NC(=O)c2cn(CC(C)C)c(=O)c3cc(OC)c(OC)cc23)cc1Cl,inactive,–
COc1ccc(C2=Nn3c(nnc3-c3ccccc3Cl)SC2)cc1OC1CCCC1,"inconclusive: 23.1 µM [cytotoxic, single point]",–
Cc1ccc(NC(=O)c2nn(C)c3c2CS(=O)(=O)c2ccccc2-3)c(Cl)c1,inactive,–
O=C(Nc1ccccc1N1CCCCC1)c1ccccc1F,"inconclusive: 4.11 µM [cytotoxic, partial curve, poor fit]",–
COc1ccccc1/C=C/C(=O)c1ccc(NC(C)=O)cc1,"inconclusive: 18.4 µM [cytotoxic, single point]",–
O=[N+]([O-])c1cc(S(=O)(=O)N2CCCCCC2)ccc1F,"inconclusive: 29.1 µM [cytotoxic, single point]",–
CCOc1ccc(-c2nnn(CC#N)n2)cc1OC,"inconclusive: 25.9 µM [cytotoxic, single point]",–
COc1cccc(N2CC(O)=C(c3nc4ccccc4c(=O)[nH]3)C2=N)c1,active: 4.61 µM,–
C#CC[N+](C)(C)CCCCCCCCC,active: 5.8 µM,–
CC(Oc1ccccc1)C(=O)Nc1ccc(S(=O)(=O)N2CCN(C)CC2)cc1 (stereo not given),inactive,–
COc1cc2c(cc1OC)C(C)N(C(=O)Nc1ccc(F)cc1)CC2 (stereo not given),active: 13 µM,–
CCCOc1c(OC)cccc1C1CC(=O)Nc2cc3c(cc21)OCO3 (stereo not given),active: 10.3 µM,–
CC(C)Cn1c(SCC#N)nc2ccccc2c1=O,"inconclusive: 32.6 µM [rising, single point]",–
COc1ccc(N2CCN(C(=O)c3cccc(NC4=NC5CS(=O)(=O)CC5S4)c3)CC2)cc1 (stereo not given),"inconclusive: 2.06 µM [rising, partial curve, poor fit]",–
CC(=O)Nc1ccc(S(=O)(=O)NC2CCSc3ccccc32)cc1 (stereo not given),"inconclusive: 16.4 µM [cytotoxic, partial curve, poor fit]",–
CN(C(=O)Nc1ccc(Cl)c(Cl)c1)c1ccccc1C(=O)O,inactive,–
O=C(COc1ccc2c(C(F)(F)F)cc(=O)oc2c1)NCc1cccs1,inactive,–
COc1ccc(CNC(=O)COc2ccc(F)cc2)cc1,inactive,–

# Looked up above.
# CC(C)Cn1c(SCC#N)nc2ccccc2c1=O – Potency: inconclusive: 32.6 µM [rising, single point]
# COc1ccc(CNC(=O)COc2ccc(F)cc2)cc1 – Potency: inactive
